For 40 compounds, cell number change and AC50 results are on record in PubChem BioAssay AID2685 (National Center for Advancing Translational Sciences (NCATS), 2010).

The term AC50 denotes the midpoint of the concentration-response curve, whichever way the signal moves.

This assay is described as follows: qHTS Assay for Lipid Storage Modulators in Drosophila S3 Cells.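 On cell number change: cells counted by Cell Tracker Red CMTPX staining in the red channel.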 As to conditions: BODIPY lipid droplet fluorescence, 18-24 h; for cell number change: measured here: cell count max response, cells fed with added oleic acid. The procedure, abridged:
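Laser-scanning cytometry quantifies lipid droplet accumulation (500–530 nm total intensity; droplet/cell object ratio) in oleic acid-fed (400 uM added) Drosophila S3 cells treated with a concentration series. 20 uM Triacsin C defined 100% inhibition.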

Where [1] appears, read: measured here: lipid fluorescence (Fed channel) AC50, cells fed with added oleic acid.
Where [2] appears, read: measured here: cell number channel AC50, cells fed with added oleic acid.

Molecules are shown by their SMILES. Some of the results follow. Shown are side measurements of this screen, not its main read-out; they come without a call. The list favours compounds with an active or inconclusive main result. Words in brackets tell the shape of the fitted curve; partial curves, single points and poor fits give uncertain potencies.

As for `CCCOc1ccccc1/C=C1\SC(N2CCCCC2)=NC1=O`, the cell number change was -12.4%. Moreover, the AC50 under setting [1] is 23.1 µM [falling, single point].
On to `O=C(CN1C(=O)/C(=C/c2ccccc2Cl)SC1=S)NC1CCS(=O)(=O)C1` (configuration not stated), for which the cell number change turned out to be 5.28%.
Turning to `COCCCn1c(N)c(-c2nc3ccccc3n2C)c2nc3ccccc3nc21`, the cell number change was 12.6%.
In the case of `Cc1ccccc1COc1ccc(/C=C(\C#N)C(N)=O)cc1`, the cell number change was -53.8%.
In the case of `Cc1cccc(N2C(=O)SC(SC(=Nc3ccccc3)Nc3ccccc3)C2=O)c1` (configuration not stated), the cell number change is -33.3%. Under setting [2], the AC50 is 0.58 µM [falling, partial curve, poor fit]. Further, under setting [1], the AC50 is 0.291 µM [falling, full curve, poor fit].
Turning to `CCN1CCC2(CC1)N=C(c1ccc(F)cc1)C(=S)N2C(=O)c1ccc(C(C)(C)C)cc1`, the cell number change was -67.4%. For the same compound, the AC50 under setting [2] is 10.3 µM [falling, partial curve]. For the same compound, the AC50 under setting [1] is 9.2 µM [falling, partial curve].
For the compound `O=C(NCc1ccccc1)C(c1ccccn1)N(C(=O)c1csnn1)c1ccccc1F` (configuration not stated), the cell number change amounted to 9.24%.
Regarding `CCCCNc1ncnc2c1nnn2Cc1ccccc1Cl`, the cell number change is 20.2%. Besides, the AC50 under setting [1] was 6.51 µM [rising, single point].
Regarding `CCOc1cc(N2CCOCC2)c(OCC)cc1NC(=O)CN1C(=O)NC(CC(C)C)C1=O` (configuration not stated), the cell number change came to 6.26%.
`CCOP(=O)(OCC)c1nc(-c2ccccc2Cl)oc1N1CCOCC1`: the cell number change worked out at 22.8%.
For the compound `O=C(C1COc2ccccc2O1)N1CCN(c2ccccn2)CC1` (configuration not stated), the cell number change was found to be 4.06%.
As for `CN(CC(=O)Nc1ccccc1Cl)CC(=O)Nc1sc2c(c1C(N)=O)CCC2`, the AC50 is 0.58 µM [falling, single point] under setting [2] and 18.4 µM [rising, partial curve] under setting [1].
With `CN(NS(=O)(=O)c1ccccc1)c1nc2ccccc2nc1C(F)(F)F`, the cell number change was determined as 82.7%. Also, under setting [2], the AC50 is 10.3 µM [rising, partial curve]. Besides, under setting [1], the AC50 is 20.6 µM [rising, partial curve].
Regarding `Cn1cccc1C(C#N)c1ccccc1C#N` (configuration not stated), the cell number change is 49.7%. Besides, the AC50 under setting [2] is 16.4 µM [rising, single point].
For `CC(O)CNc1ncnc2cc(-c3ccc(F)cc3)sc12` (configuration not stated), the cell number change was determined as 7.66%. Under setting [1], the AC50 was 1.3 µM [rising, full curve].
As for `N#Cc1ccccc1OCC(=O)OCC(=O)NC1CC1`, the cell number change is -4.85%. Also, the AC50 under setting [1] was 1.16 µM [rising, full curve].
Regarding `CCC(C)N1C(=O)/C(=C/c2c(NCCCOC(C)C)nc3c(C)cccn3c2=O)SC1=S` (configuration not stated), the cell number change was -92.1%. The AC50 under setting [2] was 14.6 µM [falling, partial curve]. In addition, the AC50 under setting [1] is 0.517 µM [falling, full curve].
With `Cc1cc(C(=O)CSc2nnnn2-c2ccc(O)cc2)c(C)n1Cc1ccc2c(c1)OCO2`, the cell number change was -14.9%. Under setting [1], the AC50 is 1.3 µM [rising, full curve, poor fit].
For the compound `Cc1ccccc1-c1ccc(C(=O)Nc2cccc(F)c2)o1`, the cell number change worked out at 3.59%. In addition, under setting [1], the AC50 is 10.3 µM [rising, partial curve].
For the compound `N#Cc1ccsc1NC(=O)CN1CCOCC1`, the cell number change is -19.1%. Also, under setting [1], the half-maximal activity concentration (AC50) was 0.461 µM [falling, single point].
For the compound `CCc1nc2scc(-c3ccccc3)c2c(=O)n1N`, the AC50 is 3.26 µM [rising, partial curve] under setting [2] and 0.411 µM [rising, partial curve, poor fit] under setting [1].
Turning to `O=C(c1ccncc1)c1ccc([N+](=O)[O-])cc1`, the cell number change is -15.1%. Further, under setting [2], the AC50 is 6.51 µM [falling, single point].
Regarding `CC12OC1C1(O)CCCC1=CC2=O` (configuration not stated), the cell number change is 17.8%. Also, the AC50 under setting [1] was 29.1 µM [falling, single point].
Take `C/C(CC(=O)Nc1ccccc1)=N\NC(=O)COc1ccc(C)cc1Br`: the cell number change was -15.6%.
As for `Cc1ccc(S(C)(=O)=O)cc1C(=O)NC(C)C1CC2CCC1C2` (configuration not stated), the cell number change was -7.69%.
Take `COCC(=O)Nc1nnc(C2CCCCC2)s1`: the cell number change is 6.88%. The AC50 under setting [1] is 29.1 µM [falling, single point].
On to `COC(=O)C1(CCSC)NC(c2ccccc2OC)C2C(=O)N(C)C(=O)C21` (configuration not stated), for which the cell number change is -0.0698%.
`Cc1ccc(C(=O)N2CCN(C(=O)C3CCCO3)CC2)cc1` (configuration not stated): the cell number change was determined as 2.15%. Besides, the AC50 under setting [2] was 2.91 µM [falling, single point].
Turning to `COc1ccc(C(NC(=O)CN2C(=O)NC3(CCc4ccccc43)C2=O)c2ccccc2)cc1` (configuration not stated), the cell number change was 37.9%. Under setting [2], the AC50 was 20.6 µM [rising, single point]. Also, the AC50 under setting [1] is 2.59 µM [falling, partial curve].
With `Cc1ccc(-n2nc3ccc(NC(=S)NC(=O)/C=C/c4ccco4)cc3n2)cc1`, the cell number change worked out at 4.98%. Moreover, under setting [1], the AC50 was 3.66 µM [rising, single point].
For `Cc1cc2c(c(=O)n1CC1CCCO1)C(c1ccco1)C(C#N)=C(N)O2` (configuration not stated), the cell number change was 1.79%. For the same compound, the AC50 under setting [1] was 0.517 µM [falling, full curve].
With `COc1ccc(Nc2nc(Cl)nc(N3CCN(c4ccc(OC)cc4)CC3)n2)cc1`, the cell number change is -27.1%. In addition, the AC50 under setting [1] is 29.1 µM [falling, single point].
In the case of `CCOc1ccc(N(CC(=O)Nc2ccc(OC)cc2)C2=NC3CS(=O)(=O)CC3S2)cc1` (configuration not stated), the cell number change turned out to be 8.93%. The AC50 under setting [1] was 1.46 µM [rising, partial curve].
Regarding `Cc1nn(C)c(NC(=O)c2ccc(Cl)cc2)c1Cl`, the cell number change is -15.3%. In addition, the AC50 under setting [1] is 0.58 µM [rising, single point].
In the case of `CCOc1ccc2[nH]c(C(=O)N/N=C/c3ccccc3OC)cc2c1`, the cell number change was -31%. In addition, the AC50 under setting [2] is 29.1 µM [falling, single point]. Moreover, the AC50 under setting [1] is 29.1 µM [falling, single point].
As to `CCOc1cc(NC(=S)Nc2ccccc2OC)c(OCC)cc1NC(=O)c1ccccc1C`, the cell number change was -30.2%. Besides, the AC50 under setting [2] was 29.1 µM [falling, partial curve]. The AC50 under setting [1] was 18.4 µM [falling, single point].
Regarding `Cc1cc(=O)[nH]c(SCC(=O)NCC2CCCO2)n1` (configuration not stated), the cell number change was -44.1%. Besides, the concentration at half-maximal activity (AC50) under setting [2] is 29.1 µM [falling, single point]. For the same compound, the AC50 under setting [1] is 20.6 µM [falling, single point].
For `COC(=O)c1ccccc1NC(=O)CN(Cc1ccc(Cl)cc1)S(C)(=O)=O`, the cell number change is -8.07%. Besides, the AC50 under setting [1] was 6.51 µM [rising, full curve].
Take `CCOc1ccc(OCC)c(S(=O)(=O)n2cc(C)nc2CC)c1`: the cell number change is -12.1%. Further, the AC50 under setting [1] is 32.6 µM [falling, single point].
Turning to `COc1ccc(S(=O)(=O)N2CCCCCC2)cc1C(=O)N(C)CC(=O)Nc1ccccc1Cl`, the AC50 under setting [1] is 2.91 µM [rising, single point].
